# According to the supplement of paper PMC12819154, “High-throughput peptide-centric local stability assay extends protein–ligand identification to membrane proteins, tissues and bacteria” (Nature Structural & Molecular Biology, 2025):
# Chains of the proteins cited; added tags and fusions are not shown. Lines headed by an entry give the natural chain unless they say otherwise; changes in a name come on top.
# UniProt O95336: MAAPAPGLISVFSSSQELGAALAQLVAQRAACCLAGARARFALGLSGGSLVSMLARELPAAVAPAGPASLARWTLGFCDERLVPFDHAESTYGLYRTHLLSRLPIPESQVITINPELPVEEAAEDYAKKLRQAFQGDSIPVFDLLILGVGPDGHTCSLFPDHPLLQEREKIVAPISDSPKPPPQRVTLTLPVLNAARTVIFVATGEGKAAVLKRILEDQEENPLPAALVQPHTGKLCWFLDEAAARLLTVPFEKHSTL
# UniProt O75817: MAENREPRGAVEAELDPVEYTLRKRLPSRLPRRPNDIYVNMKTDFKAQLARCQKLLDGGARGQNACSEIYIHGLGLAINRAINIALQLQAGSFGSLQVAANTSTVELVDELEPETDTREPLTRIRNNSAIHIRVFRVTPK
# UniProt O95793: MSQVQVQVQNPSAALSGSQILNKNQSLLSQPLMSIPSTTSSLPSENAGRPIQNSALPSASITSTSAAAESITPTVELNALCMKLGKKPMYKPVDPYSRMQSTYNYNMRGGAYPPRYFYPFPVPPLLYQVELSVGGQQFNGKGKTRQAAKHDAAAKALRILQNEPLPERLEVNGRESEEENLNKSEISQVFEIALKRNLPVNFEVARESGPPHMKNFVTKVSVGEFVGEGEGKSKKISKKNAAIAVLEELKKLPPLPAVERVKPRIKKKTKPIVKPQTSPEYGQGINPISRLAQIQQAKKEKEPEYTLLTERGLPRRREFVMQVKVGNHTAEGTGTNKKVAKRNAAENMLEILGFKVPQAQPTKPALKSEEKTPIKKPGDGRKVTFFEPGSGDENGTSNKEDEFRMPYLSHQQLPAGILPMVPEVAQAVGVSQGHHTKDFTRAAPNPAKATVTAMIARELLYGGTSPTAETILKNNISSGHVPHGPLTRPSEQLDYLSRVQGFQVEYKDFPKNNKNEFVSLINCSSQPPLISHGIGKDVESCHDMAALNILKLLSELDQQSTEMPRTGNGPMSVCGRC
# UniProt O75880: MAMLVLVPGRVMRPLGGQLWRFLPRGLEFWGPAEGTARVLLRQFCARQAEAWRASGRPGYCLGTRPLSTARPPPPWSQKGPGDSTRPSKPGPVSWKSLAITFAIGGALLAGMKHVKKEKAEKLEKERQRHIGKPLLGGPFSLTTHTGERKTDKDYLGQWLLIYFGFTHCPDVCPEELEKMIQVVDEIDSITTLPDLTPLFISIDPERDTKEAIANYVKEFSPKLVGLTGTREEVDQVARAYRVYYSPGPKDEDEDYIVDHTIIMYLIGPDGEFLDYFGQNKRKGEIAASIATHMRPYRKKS
# UniProt O95721: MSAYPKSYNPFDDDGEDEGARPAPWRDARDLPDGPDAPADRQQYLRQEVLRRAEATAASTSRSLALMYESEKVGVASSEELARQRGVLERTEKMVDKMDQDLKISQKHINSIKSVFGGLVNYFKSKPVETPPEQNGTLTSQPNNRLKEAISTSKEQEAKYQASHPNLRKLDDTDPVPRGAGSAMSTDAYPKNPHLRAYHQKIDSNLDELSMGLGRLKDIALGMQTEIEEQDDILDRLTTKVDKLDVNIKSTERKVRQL
# UniProt O75582, whole entry, looked up: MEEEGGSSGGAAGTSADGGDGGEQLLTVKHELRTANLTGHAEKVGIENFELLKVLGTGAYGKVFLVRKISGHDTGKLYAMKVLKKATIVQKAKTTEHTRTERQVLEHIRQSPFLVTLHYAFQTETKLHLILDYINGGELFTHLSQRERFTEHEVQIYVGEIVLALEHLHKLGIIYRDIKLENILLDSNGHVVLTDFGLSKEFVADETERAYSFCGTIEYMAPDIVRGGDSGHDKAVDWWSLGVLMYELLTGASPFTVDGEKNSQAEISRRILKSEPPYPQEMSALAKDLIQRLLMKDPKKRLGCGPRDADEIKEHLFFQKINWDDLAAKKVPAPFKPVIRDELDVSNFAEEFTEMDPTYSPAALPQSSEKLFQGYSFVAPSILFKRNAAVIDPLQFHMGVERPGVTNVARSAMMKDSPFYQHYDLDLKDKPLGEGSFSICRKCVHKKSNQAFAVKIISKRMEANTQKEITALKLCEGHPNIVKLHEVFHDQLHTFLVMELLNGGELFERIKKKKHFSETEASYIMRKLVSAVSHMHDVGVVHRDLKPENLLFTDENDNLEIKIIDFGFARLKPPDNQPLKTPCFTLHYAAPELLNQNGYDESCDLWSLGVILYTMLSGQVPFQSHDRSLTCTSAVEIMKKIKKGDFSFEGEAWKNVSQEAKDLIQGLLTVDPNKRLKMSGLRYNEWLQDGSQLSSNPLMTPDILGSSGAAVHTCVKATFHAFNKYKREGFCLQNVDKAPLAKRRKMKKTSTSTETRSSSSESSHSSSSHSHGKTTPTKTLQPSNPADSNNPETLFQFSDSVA
# UniProt O75528: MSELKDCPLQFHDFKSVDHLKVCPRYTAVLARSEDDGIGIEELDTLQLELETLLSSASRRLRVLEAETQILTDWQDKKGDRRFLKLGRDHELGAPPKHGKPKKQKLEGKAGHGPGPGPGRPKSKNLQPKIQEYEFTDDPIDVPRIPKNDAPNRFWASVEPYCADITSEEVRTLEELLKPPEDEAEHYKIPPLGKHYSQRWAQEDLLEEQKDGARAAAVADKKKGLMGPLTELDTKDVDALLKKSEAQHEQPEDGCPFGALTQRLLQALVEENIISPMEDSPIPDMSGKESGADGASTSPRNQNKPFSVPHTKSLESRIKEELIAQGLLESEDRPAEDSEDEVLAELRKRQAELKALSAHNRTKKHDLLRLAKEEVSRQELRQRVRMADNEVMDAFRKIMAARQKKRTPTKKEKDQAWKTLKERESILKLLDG
# UniProt O95273: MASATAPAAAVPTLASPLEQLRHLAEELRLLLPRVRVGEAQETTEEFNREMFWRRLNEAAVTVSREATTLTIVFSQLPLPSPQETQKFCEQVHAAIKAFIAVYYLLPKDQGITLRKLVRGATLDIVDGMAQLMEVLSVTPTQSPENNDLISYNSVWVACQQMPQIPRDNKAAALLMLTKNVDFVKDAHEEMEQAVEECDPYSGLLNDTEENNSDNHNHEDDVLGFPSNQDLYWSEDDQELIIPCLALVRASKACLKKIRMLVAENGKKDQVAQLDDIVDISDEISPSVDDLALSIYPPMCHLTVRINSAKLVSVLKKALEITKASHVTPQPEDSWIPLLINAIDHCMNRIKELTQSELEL
# UniProt O76094: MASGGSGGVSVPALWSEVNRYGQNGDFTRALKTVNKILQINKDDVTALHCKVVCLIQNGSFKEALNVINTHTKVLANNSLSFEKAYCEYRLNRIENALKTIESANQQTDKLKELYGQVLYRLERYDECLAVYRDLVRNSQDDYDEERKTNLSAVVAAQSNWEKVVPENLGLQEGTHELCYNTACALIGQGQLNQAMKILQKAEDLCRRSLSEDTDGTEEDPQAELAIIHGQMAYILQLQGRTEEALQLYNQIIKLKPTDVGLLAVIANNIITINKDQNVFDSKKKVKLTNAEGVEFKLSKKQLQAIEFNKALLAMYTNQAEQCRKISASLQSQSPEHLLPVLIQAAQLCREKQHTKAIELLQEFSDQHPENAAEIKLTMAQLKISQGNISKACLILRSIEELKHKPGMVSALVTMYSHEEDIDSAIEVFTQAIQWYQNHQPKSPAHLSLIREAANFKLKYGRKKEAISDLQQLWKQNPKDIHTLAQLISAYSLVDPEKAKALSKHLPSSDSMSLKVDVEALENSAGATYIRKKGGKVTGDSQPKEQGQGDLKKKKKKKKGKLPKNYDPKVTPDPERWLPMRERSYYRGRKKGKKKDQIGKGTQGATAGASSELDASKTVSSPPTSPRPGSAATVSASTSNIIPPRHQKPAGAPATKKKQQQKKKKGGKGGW
# This is one part of the list. Most values lie at the level of the controls, where differences are scatter.
# Compound: Cc1nc(Nc2ncc(C(=O)Nc3c(C)cccc3Cl)s2)cc(N2CCN(CCO)CC2)n1 [dasatinib]
# Assay: log2 fold change of tryptic peptide abundance, ligand vs vehicle (limited proteolysis) (log2 ratio); higher = more trypsin-susceptible (destabilized)
# Details: ligand concentration: 5 uM; sample: K562 cleared lysate
row,Target,log2 fold change
1,"PGLS (peptide sequence: IVAPISDSPKPPPQR, peptide start residue: 171) (UniProt O95336)",-0.234
2,"POP7 (peptide sequence: AENREPR, peptide start residue: 2) (UniProt O75817)",-0.0565
3,"STAU1 (peptide sequence: MQSTYNYNMR, peptide start residue: 99) (UniProt O95793)",-0.279
4,"SCO1 (peptide sequence: GPGDSTRPSKPGPVSWK, peptide start residue: 80) (UniProt O75880)",-0.0594
5,"SNAP29 (peptide sequence: MVDKMDQDLK, peptide start residue: 94) (UniProt O95721)",-0.109
6,"UniProt O75582 (peptide sequence: SLTCTSAVEIMKK, peptide start residue: 628)",-0.899
7,"UniProt O75528 (peptide sequence: ERESILK, peptide start residue: 422)",0.327
8,"CCNDBP1 (peptide sequence: MLVAENGKK, peptide start residue: 260) (UniProt O95273)",-0.131
9,"SRP72 (peptide sequence: KTNLSAVVAAQSNWEK, peptide start residue: 148) (UniProt O76094)",0.147
